Results reported in patent publication US4908322A, “Derivatization of amines for electrochemical detection” (The United States of America as represented by the …, priority 1988, dated 1990).
Values joined by “and” are separate entries in the source; they are usually repeats but may differ in a detail not shown here. Equal entries are not always repeated.

Legend:
[1] = Limit of sensitivity of serotonin determination (human CSF)
[2] = Within run precision with artificial CSF (recovery of 5-HT and acetyl 5-HT after N-succinimidyl propionate derivatization, HPLC with electrochemical detection)
[3] = Between run precision in artificial CSF
[4] = Brain tissue assay: recovery tests and precision in rat hypothalamus; conditions: rat hypothalami homogenate, 100 pmol added
[5] = Limit of sensitivity (signal/noise=3) of histamine and methylhistamine derivatives; conditions: of the pure amines, measured as derivatives
[6] = for calculated reaction yield: derivatization with sulfo B-H; for [C] recovery of derivative after cellulose phosphate column: n = 4, mean recovery of 100 pmol of pure derivative
[7] = conc. (× 10^10) M/l = 4, 0.0004 µM, 0.0004 µM
[8] = conc. (× 10^10) M/l = 10, 0.001 µM, 0.001 µM
[9] = conc. (M/l × 10^10) = 4, 0.0004 µM
[10] = conc. (M/l × 10^10) = 10, 0.001 µM

| SMILES | detection limit [1] [parts per trillion] | limit of sensitivity [1] [picomol/ml CSF] | % Recovery Mean ± S.D. ([2]; conc. (× 10^10) M/l = 1, 0.0001 µM) | % Recovery (individual portion) ([2]; conc. (× 10^10) M/l = 1, 0.0001 µM, 0.0001 µM) | % Recovery (individual portion) [2, 7] | % Recovery (individual portion) [2, 8] | % Recovery (Mean ± S.D.) ([3]; conc. (M/l × 10^10) = 1, 0.0001 µM) [%] | % Recovery (Mean ± S.D.) [3, 9] [%] | % Recovery (Mean ± S.D.) [3, 10] [%] | % Recovery Mean ± S.D. [2, 7] | recovery [4] [%] | detection limit (signal/noise=3) [5] [pmol] | calculated reaction yield [6] [%] | [C] recovery of derivative after cellulose phosphate column [6] [%] |
| --- | --- | --- | --- | --- | --- | --- | --- | --- | --- | --- | --- | --- | --- | --- |
| NCCc1c[nH]c2ccc(O)cc12 [5-HT, 5-hydroxytryptamine] | 18 | 0.1 | 50 + 17.7% | 50% and 25% and 75% | 68.6% and 62.9% and 74.3% and 52.4% and 57.1% and 47.6% and 42.9% and 84.8% and 78.8% and 60.6% and 66.7% and 64.7% and 52.9% and 41.1% and 35.3% and 32.4% and 40% and 45% and 50% and 36% and 44% | 98% and 50% and 43.2% and 52.3% and 30.8% and 40.4% and 36.5% and 53.7% and 51.2% and 56.1% and 78.1% and 68.3% and 39.3% and 28.6% and 21.4% and 20.2% and 40% and 46% and 32% and 40.3% and 43.5% and 51.6% | 50 ± 17.7 | 55.74 ± 13.90 | 45.28 ± 18.12 |  |  |  |  |  |
| CC(=O)NCCc1c[nH]c2ccc(O)cc12 [Acetyl 5-HT, N-acetylserotonin] |  |  |  |  | 78.3% and 52.2% and 56.5% and 82.6% and 42.3% and 38.4% and 50.0% and 33.4% and 53.6% and 43.9% and 48.8% and 53.7% | 61.4% and 47.4% and 42.1% and 40.4% and 47.1% and 40.0% and 30.8% and 47.7% and 36.9% and 48.5% and 52.4% and 54.4% and 26.9% and 14.4% and 10.6% and 15.4% and 18.3% |  | 48.65 ± 12.56 | 39.23 ± 13.72 | 64.32 ± 14.9% and 42.28 ± 4.74% and 48.78 ± 4.88% |  |  |  |  |
| Cn1cnc(CCN)c1 [N.tau.-methylhistamine] |  |  |  |  |  |  |  |  |  |  | 86 | 0.2 | 94.9 | 88.4 |
| CNCCc1c[nH]cn1 [Nα-methylhistamine, reference compound] |  |  |  |  |  |  |  |  |  |  |  | 1 | 98.2 | 88.3 |
| NCCc1c[nH]cn1 [histamine] |  |  |  |  |  |  |  |  |  |  | 96 | 0.1 | 99.1 | 90.0 |
